Results published in patent US20230312730A1 (ATYR PHARMA, published 2023).
These are yes or no findings as the source states them, for the method shown. Some results given as binding are weak or reduced against the parent protein; the word gives no strength. For some of these results: Where a sequence is shown, tags or fusion partners need not be part of it. Blank lines part the entries; values can stand above or below the binder they belong to.

Experiments:
[1] = target: T1, human NRP2 variant 2 (NM_003872) over-expressed on Expi293-hNRP2 clonal cells (human) (UniProt O60462); experiment: flow cytometry on Expi293-hNRP2 clonal cells, AF555 anti-Myc detection
T1 sequence: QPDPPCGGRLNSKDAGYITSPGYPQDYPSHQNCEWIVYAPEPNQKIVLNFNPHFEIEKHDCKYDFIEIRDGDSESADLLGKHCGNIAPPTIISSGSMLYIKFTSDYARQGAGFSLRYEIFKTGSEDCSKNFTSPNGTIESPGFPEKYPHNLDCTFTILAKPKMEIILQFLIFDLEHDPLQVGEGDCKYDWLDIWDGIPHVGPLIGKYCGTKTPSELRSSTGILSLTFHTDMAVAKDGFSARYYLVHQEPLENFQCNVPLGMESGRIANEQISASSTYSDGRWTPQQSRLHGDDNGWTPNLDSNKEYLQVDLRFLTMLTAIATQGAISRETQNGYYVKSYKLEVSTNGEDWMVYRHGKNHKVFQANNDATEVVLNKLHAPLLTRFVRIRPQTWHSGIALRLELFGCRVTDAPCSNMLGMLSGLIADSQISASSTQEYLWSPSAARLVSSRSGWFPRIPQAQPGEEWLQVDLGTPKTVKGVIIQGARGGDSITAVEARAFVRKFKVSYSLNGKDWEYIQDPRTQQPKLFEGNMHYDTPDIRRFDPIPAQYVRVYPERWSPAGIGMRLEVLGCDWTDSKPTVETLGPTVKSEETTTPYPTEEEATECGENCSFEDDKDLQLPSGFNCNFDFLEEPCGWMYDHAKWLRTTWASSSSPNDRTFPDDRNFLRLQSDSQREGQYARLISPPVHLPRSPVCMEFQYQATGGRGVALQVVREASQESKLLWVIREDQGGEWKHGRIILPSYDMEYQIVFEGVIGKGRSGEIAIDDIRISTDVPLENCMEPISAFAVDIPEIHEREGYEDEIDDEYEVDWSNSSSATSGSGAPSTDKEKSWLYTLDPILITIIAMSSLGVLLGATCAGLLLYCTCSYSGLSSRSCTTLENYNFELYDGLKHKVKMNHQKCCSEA

[2] = target: T1, human NRP2 variant 2 (NM_003872) over-expressed on Expi293-hNRP2 clonal cells (human); experiment: flow cytometry on Expi293-hNRP2 cells, Sema3F-p95m at 6 nM without antibody, AF555 anti-Myc detection
[3] = target: T1, human NRP2 variant 2 (NM_003872) over-expressed on Expi293-hNRP2 clonal cells (human); experiment: flow cytometry on Expi293-hNRP2 clonal cells, rabbit anti-VEGF-C and labelled anti-rabbit secondary
[4] = target: T1, human NRP2 variant 2 (NM_003872) over-expressed on Expi293-hNRP2 clonal cells (human); experiment: flow cytometry on Expi293-hNRP2 clonal cells, VEGF-C at 100 nM, rabbit anti-VEGF-C and AF647 anti-rabbit secondary

binding [1]: binds
binding [2]: binds
B1: Sema3F-p95m (Myc-tagged Sema3F-p95 R583A R586A-1359) (ligand, UniProt Q13275 19-779, looked up)
chain: SFPTQDHLPATPRVRLSFKELKATGTAHFFNFLLNTTDYRILLKDEDHDRMYVGSKDYVLSLDLHDINREPLIIHWAASPQRIEECVLSGKDVNGECGNFVRLIQPWNRTHLYVCGTGAYNPMCTYVNRGRRAQATPWTQTQAVRGRGSRATDGALRPMPTAPRQDYIFYLEPERLESGKGKCPYDPKLDTASALINEELYAGVYIDFMGTDAAIFRTLGKQTAMRTDQYNSRWLNDPSFIHAELIPDSAERNDDKLYFFFRERSAEAPQSPAVYARIGRICLNDDGGHCCLVNKWSTFLKARLVCSVPGEDGIETHFDELQDVFVQQTQDVRNPVIYAVFTSSGSVFRGSAVCVYSMADIRMVFNGPFAHKEGPNYQWMPFSGKMPYPRPGTCPGGTFTPSMKSTKDYPDEVINFMRSHPLMYQAVYPLQRRPLVVRTGAPYRLTTIAVDQVDAADGRYEVLFLGTDRGTVQKVIVLPKDDQELEELMLEEVEVFKDPAPVKTMTISSKRQQLYVASAVGVTHLSLHRCQAYGAACADCCLARDPYCAWDGQACSRYTASSKRASRAQDVRHGNPIRQCRGFNSNANKNAVESVQYGVAGSAAFLECQPRSPQATVKWLFQRDPGDRRREIRAEDRFLRTEQGLLLRALQLSDRGLYSCTATENNFKHVVTRVQLHVLGRDAVHAALFPPLSMSAPPPPGAGPPTPPYQELAQLLAQPEVGLIHQYCQGYWRHVPPSPREAPGAPRSPEPQDQKKPRNRR
notes: not shown: Myc tag

binding [3]: binds
binding [4]: binds
B2: recombinant human VEGF-C (R&D Systems #9199-VC) (ligand, UniProt P49767 103-227, looked up)
chain: TEETIKFAAAHYNTEILKSIDNEWRKTQCMPREVCIDVGKEFGVATNTFFKPPCVSVYRCGGCCNSEGLQCMNTSTSYLSKTLFEITVPLSQGPKPVTISFANHTSCRCMSKLDVYRQVHSIIRR
notes: Bought reagent
